PubChem BioAssay AID1259424, University of Nebraska Medical Center, 2018
Assay: 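Seek colon cancer survival genes behaving like KSR1, using a six-gene signature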 (primary screen). Cell system: human HCT116 colon cancer cells. Reagent: siRNA pool against human genes, 50 nM. Measurement: 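Log2 levels of six mRNAs (branched-DNA multiplex), adjusted by two reference genes and the non-targeting median, then scored against the average KSR1 knockdown pattern as Pearson r and euclidean distance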. Scale: mean correlation with KSR1 profile: higher = expression change more like KSR1 knockdown; mean distance from KSR1 profile: higher = expression change less like KSR1 knockdown.
The whole screen tested about 14,000 reagents; shown is a part drawn at random. 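Higher correlation or smaller distance means closer resemblance to KSR1 loss; control wells, including KSR1 knockdowns, recur on many plates.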 Further read-outs or replicates are left out here. Not given: the time to read-out.

Target gene	mean correlation with KSR1 profile	mean distance from KSR1 profile
ATP1B1	0.24	2.07
PRSS8	-0.0577	2.12
ADAM23	0.189	0.997
MIER1	0.394	1.29
MAP1B	0.163	1.52
EIF3I	-0.0599	1.68
S100A12	0.149	2.71
PF4	-0.625	3.28
CDH8	0.191	1.46
SRPRB	0.205	1.91
DCUN1D4	-0.18	1.35
MARCHF1	-0.744	5.35
CCDC51	-0.0519	2.02
DGKH	0.382	2.62
RASA2	-0.617	2.52
RHOBTB3	0.0631	1.31
NUDT9	0.338	2.46
DUX5	0.396	3.26
PRR15L	-0.144	2.1
SATB1	0.142	2.25
AZI2	0.0511	1.2
TMEM254	0.2	2.24
FLVCR2	-0.338	4.13
MRPS9	0.206	1.8
AUTS2	0.586	1.26
MAGEA5P	-0.0338	2.58
INMT	-0.339	3.68
PTGFRN	-0.697	2.75
TOR1AIP1	0.703	1.49
ZNF337	-0.334	3.07
EMILIN1	0.211	2.33
PRDM8	0.118	1.8
UBE2G1	0.524	0.828
ERBIN	0.0379	1.31
